Experimental data taken from paper PMC12506269.
These are yes or no findings as the source states them, for the method shown. In cells and extracts the contact can be indirect. Some entries that bind do so weakly or less than the wild type. For some assays here: Tags and fused reporters may be left off the sequences shown.

Amino acid sequences for entries named in this document (tags omitted).
UniProt P06733: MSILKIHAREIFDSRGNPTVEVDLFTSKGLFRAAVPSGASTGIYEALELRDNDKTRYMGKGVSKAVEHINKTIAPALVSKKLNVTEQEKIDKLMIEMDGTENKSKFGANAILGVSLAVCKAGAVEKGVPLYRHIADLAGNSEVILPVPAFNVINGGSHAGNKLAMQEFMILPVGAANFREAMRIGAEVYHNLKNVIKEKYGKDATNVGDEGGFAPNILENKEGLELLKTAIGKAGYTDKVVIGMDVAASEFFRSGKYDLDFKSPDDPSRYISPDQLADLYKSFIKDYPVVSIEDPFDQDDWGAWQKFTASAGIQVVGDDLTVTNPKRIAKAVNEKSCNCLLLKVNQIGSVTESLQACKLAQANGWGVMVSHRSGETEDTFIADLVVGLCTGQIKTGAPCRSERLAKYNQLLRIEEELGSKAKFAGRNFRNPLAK

What was measured:
[1] = biological target: T1, Flag-SENP1 (UniProt Q9P0U3); experiment: co-IP; HEK293T cells transfected with Flag-SENP1 and HA-ENO1; lysate, antibody overnight, Protein A/G PLUS-Agarose, immunoblot
T1 sequence: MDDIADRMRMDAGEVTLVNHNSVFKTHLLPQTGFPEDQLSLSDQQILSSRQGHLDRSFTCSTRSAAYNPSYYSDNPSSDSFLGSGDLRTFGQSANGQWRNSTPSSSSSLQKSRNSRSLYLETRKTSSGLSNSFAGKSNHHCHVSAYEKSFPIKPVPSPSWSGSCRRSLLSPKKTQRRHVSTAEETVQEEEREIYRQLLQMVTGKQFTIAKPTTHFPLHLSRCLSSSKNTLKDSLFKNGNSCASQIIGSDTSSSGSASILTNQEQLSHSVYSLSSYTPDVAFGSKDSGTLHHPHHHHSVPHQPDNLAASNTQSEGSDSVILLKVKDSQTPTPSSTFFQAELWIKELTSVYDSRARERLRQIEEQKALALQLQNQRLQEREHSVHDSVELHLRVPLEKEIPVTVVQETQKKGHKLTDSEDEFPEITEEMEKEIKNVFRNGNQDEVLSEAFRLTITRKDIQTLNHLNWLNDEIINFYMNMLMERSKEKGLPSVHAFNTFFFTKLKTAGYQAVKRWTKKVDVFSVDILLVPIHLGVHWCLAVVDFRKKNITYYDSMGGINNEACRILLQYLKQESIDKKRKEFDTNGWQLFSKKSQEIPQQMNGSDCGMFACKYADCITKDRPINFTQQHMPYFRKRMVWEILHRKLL

[2] = biological target: T2, SENP1 (Sentrin-specific protease 1), endogenous in gastric cancer cells (human (endogenous in MKN-45 and HGC-27)) (UniProt Q9P0U3); experiment: co-IP; endogenous proteins in MKN-45 and HGC-27 lysates (RIPA buffer with PMSF); antibody overnight, Protein A/G PLUS-Agarose, immunoblot
T2 sequence: T1 sequence

Row | Substance | binding [1] | binding [2]
1 | HA-ENO1 (from UniProt P06733 1-434) (enzyme) | binds | 
2 | α-enolase (ENO1), endogenous in gastric cancer cells (from UniProt P06733 1-434) (enzyme) |  | binds
